The values that follow come from article PMC6593404.

No constants are given. Whether binding was seen depends on the method and setting. Binding seen in cells or lysates may run through a third protein. Some results given as binding are weak or reduced against the parent protein; the word gives no strength. Where a sequence is shown, tags or fusion partners need not be part of it.

The target of assay [1] is T1, MSMEG_0736 (TtfA)-msfGFP, full length (Mycobacterium smegmatis) (UniProt A0QQF4).
T1 sequence: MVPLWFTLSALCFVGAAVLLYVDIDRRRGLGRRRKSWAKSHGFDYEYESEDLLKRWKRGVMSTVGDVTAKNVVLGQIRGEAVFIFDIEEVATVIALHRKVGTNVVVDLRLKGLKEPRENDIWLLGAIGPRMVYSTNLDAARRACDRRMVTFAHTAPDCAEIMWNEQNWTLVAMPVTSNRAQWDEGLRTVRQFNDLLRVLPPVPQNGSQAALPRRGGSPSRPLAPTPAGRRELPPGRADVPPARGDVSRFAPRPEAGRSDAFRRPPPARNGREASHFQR
Nature of the assay: co-IP; GFP-Trap magnetic agarose pulldown from Triton X-100-solubilized lysates, nontargeting CRISPRi control (MSMEG_5308 present), washes with 0.1% Triton X-100; blots with anti-RFP and anti-GFP.

Assay [2] addresses T1, MSMEG_0736 (TtfA)-msfGFP, full length (Mycobacterium smegmatis). Description: condition: only Triton X-100-solubilized lysates of cells depleted of MSMEG_5308; co-IP; GFP-Trap magnetic agarose pulldown from Triton X-100-solubilized lysates of cells depleted of MSMEG_5308 by CRISPRi (24 h ATc), washes with 0.1% Triton X-100; blots with anti-RFP and anti-GFP.
For assay [3] the target is unchanged. Description: co-IP; GFP-Trap magnetic agarose pulldown of msfGFP fusions from DDM-solubilized M. smegmatis lysates coexpressing MmpL3-mCherry, PBS, 4°C, washes with 0.1% DDM; blots with anti-RFP and anti-GFP; also after CRISPRi depletion of Pks13 (6 h ATc) or of MSMEG_5308 (24 h ATc).
Assay [4] concerns the target T2, MsTtfA(1-205aa)-msfGFP (Mycobacterium smegmatis) (UniProt A0QQF4).
T2 sequence: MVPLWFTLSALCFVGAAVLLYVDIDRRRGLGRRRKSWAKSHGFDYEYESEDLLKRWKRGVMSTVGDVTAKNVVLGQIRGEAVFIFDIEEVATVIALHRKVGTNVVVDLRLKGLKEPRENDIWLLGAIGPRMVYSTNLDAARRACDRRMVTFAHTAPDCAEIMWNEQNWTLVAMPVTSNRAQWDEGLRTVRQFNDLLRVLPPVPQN
The assay is described as above.

B1: MmpL3-mCherry (protein, UniProt A0QP27 1-1013)
chain: MFAWWGRTVYQFRYIVIGVMVALCLGGGVYGISLGNHVTQSGFYDEGSQSVAASLIGDEVYGRDRTSHVVAILTPPDDKKVTDKAWQKKVTEELDQVVKDHEDQIVGWVGWLKAPDTTDPTVSAMKTQDLRHTFISIPLQGDDDDEILKNYQVVEPELQQVNGGDIRLAGLNPLASELTGTIGEDQKRAEVAAIPLVAVVLFFVFGTVIAAALPAIIGGLAIAGALGIMRLVAEFTPVHFFAQPVVTLIGLGIAIDYGLFIVSRFREEIAEGYDTEAAVRRTVMTSGRTVVFSAVIIVASSVPLLLFPQGFLKSITYAIIASVMLAAILSITVLAAALAILGPRVDALGVTTLLKIPFLANWQFSRRIIDWFAEKTQKTKTREEVERGFWGRLVNVVMKRPIAFAAPILVVMVLLIIPLGQLSLGGISEKYLPPDNAVRQSQEQFDKLFPGFRTEPLTLVMKREDGEPITDAQIADMRAKALTVSGFTDPDNDPEKMWKERPANDSGSKDPSVRVIQNGLENRNDAAKKIDELRALQPPHGIEVFVGGTPALEQDSIHSLFDKLPLMALILIVTTTVLMFLAFGSVVLPIKAALMSALTLGSTMGILTWMFVDGHGSGLMNYTPQPLMAPMIGLIIAVIWGLSTDYEVFLVSRMVEARERGMSTAEAIRIGTATTGRLITGAALILAVVAGAFVFSDLVMMKYLAFGLLIALLLDATIIRMFLVPAVMKLLGDDCWWAPRWMKRVQEKLGLGETELPDERKRPTVRESETDQRALVGVGAPPPPPRPHDPTHPAPEPVRPMPPMRSNAPSAAGTARISTPPQPPQPPQAPAQQAGDEPATTRFAMARNAVRNAVNSAVHGGAGSAAAPTERAPRPGGPAQPPAPPQREEREIESWLGALRGPAPAKNVPQPPAQPQRPSTDTTRAMPPQGRPPAGPADRGNENAPTTAFSAQRPPNGGAPADATTAIPTPPQREQEPSTEKLNTREDAPEDPETKRRGGGMSAQDLLRREGRL
Take B1: the binding result in assay [1] is “binds”; in assay [2], “no binding”; in assay [3], “binds”; in assay [4], “binds”.
